# Out of some 300,000 compounds screened, about 3,700 (1.2%) were called active. Inconclusive results, whose numbers are uncertain, are shown with a selection of clear calls. Calls come from the whole dose curve; tested in HEK293 cells. Where the call is inconclusive, the potency comes from a doubtful curve fit.
# Assay: qHTS for Inhibitors of binding or entry into cells for Lassa Virus; note: nearly all actives have a fitted effect of over 50% in size
# Settings: Lassa virus pseudotype entry inhibition, cell reporter; series mostly up to 37.9 µM
# Potency is the fitted concentration of half-maximal effect.
row,SMILES,Potency
1,Cc1noc(/C=C/c2ccccc2F)c1S(=O)(=O)N1CCC(C(=O)Nc2ccc(C#N)cc2)CC1,"inconclusive: 35.5 µM [inhibitor, single point]"
2,O=C(Nc1ccc2c(c1)OCO2)c1ccc(CN2CCOCC2)cc1,inactive
3,Cc1cc(-c2nnc(SCC(=O)Nc3ccc(S(N)(=O)=O)cc3)n2N)n[nH]1,"inconclusive: 2 µM [activator, full curve]"
4,Cc1cccc(/C=N/n2c(C)cc(C)c(C#N)c2=O)c1,inactive
5,Cc1ccc2c(CNC3CCCC3)c(C(=O)O)n(Cc3ccc(F)cc3)c2c1,inactive
6,O=C(Nc1ccc2c(c1)OCO2)c1ccc(NC2CC2)c([N+](=O)[O-])c1,"inconclusive: 35.5 µM [inhibitor, single point]"
7,O=C(CCl)Nc1c2c(nn1-c1ccccc1)CSC2,"inconclusive: 12.6 µM [inhibitor, single point]"
8,CN(C(=O)CSc1nc2ccccc2n1CC(=O)N(C)C1CCCCC1)c1ccccc1,"inconclusive: 35.5 µM [inhibitor, partial curve, poor fit]"
9,Cc1nn(CC(=O)N2N=C(C(F)F)CC2(O)C(F)F)c(C)c1[N+](=O)[O-] (configuration not stated),inactive
10,CN(C)S(=O)(=O)c1ccc(C(=O)NCc2ccc3[nH]c4c(c3c2)CCCC4)cc1,"inconclusive: 18.4 µM [inhibitor, partial curve, poor fit]"
11,CCN(CC)CCNC(=O)c1ccc(NC(=O)c2ccc(C(=O)c3ccccc3)cc2)cc1,"inconclusive: 35.5 µM [inhibitor, single point]"
12,CCCCOc1ccccc1C1CC(=O)NC2=C1C(=O)CCC2 (configuration not stated),"inconclusive: 1 µM [inhibitor, full curve]"
13,COC(=O)COc1ccc(S(=O)(=O)N2CCc3ccccc3C2)cc1,"inconclusive: 0.058 µM [inhibitor, partial curve, poor fit]"
14,COC(=O)c1ccccc1NC(=O)CN1CCN(C23CC4CC(CC(C4)C2)C3)CC1,"inconclusive: 29.1 µM [inhibitor, single point]"
15,Cc1ccc(NC(=O)CCc2ccccc2)cc1S(=O)(=O)N1CCOCC1,"inconclusive: 25.1 µM [inhibitor, single point]"
16,CC(C)Sc1ncnc2c1cnn2-c1ccccc1,"inconclusive: 10 µM [inhibitor, single point]"
17,COc1ccc(NS(=O)(=O)c2ccc(NC(=O)C3CCCO3)cc2)cc1 (configuration not stated),"inconclusive: 12.6 µM [inhibitor, single point]"
18,O=[N+]([O-])c1ccc(SCc2c(F)cccc2Cl)nc1,inactive
19,N#Cc1ccc(CSc2nnc(NC(=O)C3CC(=O)N(c4ccc5c(c4)OCCO5)C3)s2)cc1 (configuration not stated),inactive
20,O=C(Cc1ccc([N+](=O)[O-])cc1)NCc1ccccc1Cl,inactive
21,CCC(=O)c1ccc(OCC(=O)Nc2nn3cnnc3s2)cc1,"inconclusive: 13 µM [inhibitor, partial curve, poor fit]"
22,C/C(=N\Nc1nc(Cl)c(Cl)cc1Cl)c1ccc(S(=O)(=O)NCc2ccco2)cc1,"inconclusive: 35.5 µM [inhibitor, single point]"
23,CCc1cc(C(=O)c2ccc(C)cc2)c(NC(=O)CCl)s1,"inconclusive: 29.1 µM [inhibitor, single point]"

row,SMILES,Potency
1,CCn1nc(C)c(CNC(=O)c2cc(COc3ccc(C)nc3)on2)c1C,"inconclusive: 35.5 µM [inhibitor, partial curve, poor fit]"
2,NC(=O)c1ccccc1NS(=O)(=O)c1ccccc1,"inconclusive: 0.0651 µM [activator, full curve, poor fit]"
3,COc1cc(C(C(=O)NC2CCCCC2)N(C(=O)Cc2c[nH]c3ccccc23)c2ccc(C)cc2)cc(OC)c1OC (configuration not stated),"inconclusive: 23.1 µM [inhibitor, single point]"
4,O=C(COC(=O)c1cc([N+](=O)[O-])ccc1N1CCCC1)Nc1ccccc1OC(F)F,inactive
5,CCC(NC(=O)c1ccccc1NC(=O)c1ccco1)C(=O)O (configuration not stated),inactive
6,CCOC(=O)c1ccc(NC(=O)c2ccc(CN3C(=O)CCn4nc(C)cc43)cc2)cc1,inactive
7,Cc1ccc(O)c(C(=O)c2cnc3c(c2)CN(C)C(=O)N3)c1,inactive
8,Cc1ccccc1C(=O)N1CCC(N2CCN(Cc3ccc(F)cc3)C(=O)C2=O)CC1,"inconclusive: 17.8 µM [activator, single point]"
9,C=CCOC(=O)N[C@@H](c1ccccc1)[C@@H](C)[N+](=O)[O-],"inconclusive: 0.237 µM [activator, full curve, poor fit]"
10,CC(=NC1CC1)c1c(-c2ccccc2)[nH]n(-c2nc3ccccc3s2)c1=O,inactive
11,CCC1CCc2c(sc(NC(C)=O)c2C#N)C1 (configuration not stated),"inconclusive: 35.5 µM [activator, single point]"
12,O=C(O)Cc1sc(N/N=C\c2ccccc2)nc1-c1ccccc1,inactive
13,Cc1noc(Cn2c(=O)c3cc4c(cc3n(CC(=O)Nc3ccccc3F)c2=O)OCO4)n1,inactive
14,O=[N+]([O-])c1ccc(N2CCN(CCO)CC2)c2ncccc12,"inconclusive: 0.501 µM [activator, full curve, poor fit]"
15,CNC(=S)N1CCN(C(c2ccccc2)c2ccccc2)CC1,inactive
16,CN(C)c1ccc(-n2cccc2/C=C2/SC(=Nc3ccc(F)cc3)NC2=O)cc1,"inconclusive: 4.61 µM [inhibitor, partial curve, poor fit]"
17,O=C(NCCCN1CCOCC1)C1CCN(S(=O)(=O)c2ccccc2)CC1,"inconclusive: 0.0891 µM [inhibitor, full curve, poor fit]"
18,COc1ccc2c(-c3ccccc3)cc(SCC(N)=O)nc2c1,"inconclusive: 35.5 µM [inhibitor, single point]"
19,C=CCOc1c(Br)cc(C2C3=C(CCCC3=O)N(C)C3=C2C(=O)CCC3)cc1OCC,"inconclusive: 2 µM [activator, partial curve, poor fit]"
20,Oc1ccc(NCc2cccs2)cc1,"inconclusive: 11.2 µM [inhibitor, partial curve, poor fit]"
21,O=C(NCC1CCCO1)c1c(O)c2c([nH]c1=O)CCCC2 (configuration not stated),"inconclusive: 2.91 µM [activator, single point]"
22,COc1ccc(CNCCC(c2ccc(F)cc2)c2ccc(OC)cc2)cc1 (configuration not stated),active: 12.6 µM
23,CCCCc1ccc(NC(=O)CSc2nc(=O)n(CCN(C)C)c3c2CCC3)cc1,"inconclusive: 31.6 µM [inhibitor, single point]"

row,SMILES,Potency
1,CCCC(C(=O)Nc1ccc(C)c(S(=O)(=O)N2CCOCC2)c1)c1ccccc1 (configuration not stated),"inconclusive: 22.4 µM [inhibitor, single point]"
2,Cc1cc(C)n(-c2ccc(C(=O)Nc3ccc4c(c3)OCCO4)cc2)n1,inactive
3,Cc1ccc(C)c(COC(=O)c2cc(S(=O)(=O)N3CCCCC3)ccc2N2CCOCC2)c1,active: 7.08 µM
4,Cc1ccc(Cl)cc1NC(=O)CCn1c(=O)c2cccn2c2cccnc21,"inconclusive: 35.5 µM [activator, single point]"
5,CC(=O)N1N=C(c2ccccc2)CC1c1cn(Cc2ccccc2)c2ccccc12 (configuration not stated),"inconclusive: 10.3 µM [inhibitor, partial curve]"
6,N/C(=N\OC(=O)c1cccs1)c1cccc([N+](=O)[O-])c1,"inconclusive: 6.31 µM [activator, single point]"
7,CN1CCC(=NNC(=O)c2ccc(N(Cc3ccccc3Cl)S(C)(=O)=O)cc2)CC1,"inconclusive: 29.1 µM [inhibitor, single point]"
8,N/C(=N\OC(=O)c1cc([N+](=O)[O-])ccc1Cl)c1ccccn1,"inconclusive: 10 µM [inhibitor, partial curve, poor fit]"
9,C=CCc1ccc(OCCOc2cccc(/C=N/n3cnnc3)c2)c(OC)c1,"inconclusive: 10 µM [inhibitor, partial curve, poor fit]"
10,Cc1cccc(-n2c(C)c(-c3ccccc3)[nH]c2=S)c1,inactive
11,CC(C)Oc1ccc(CNC(=O)C2CCN(C(=O)N3CC(C)Oc4ccccc43)CC2)cc1 (configuration not stated),"inconclusive: 2.82 µM [inhibitor, partial curve, poor fit]"
12,CC(C)Oc1ccc(CCNC(=O)CC2C(=O)NCCN2C)cc1 (configuration not stated),"inconclusive: 25.1 µM [inhibitor, single point]"
13,CCOCc1c(C(=O)Nc2ccc3nc(N4CCOCC4)sc3c2)oc2ccccc12,"inconclusive: 12.6 µM [inhibitor, partial curve, poor fit]"
14,COc1ccc(-c2csc3nc(-c4ccccc4)oc(=O)c23)cc1OC,"inconclusive: 35.5 µM [inhibitor, single point]"
15,COC(=O)CCN(C1CCCCC1)S(=O)(=O)c1ccc(S(=O)(=O)NC2CCCCC2)cc1,inactive
16,Cc1ccc(S(=O)(=O)/N=C(\N)Nc2nc(C)c3cc(C)c(C)cc3n2)cc1,"inconclusive: 16.4 µM [inhibitor, single point]"
17,FC(F)Oc1ccccc1NC(=S)NCCc1ccccc1,inactive
18,CCOc1ccc(NC2=C(OC)C(=O)c3ccccc3C2=O)cc1,inactive
19,CC1CN(C(=O)COC(=O)c2cccc(S(=O)(=O)N3CCc4ccccc43)c2)CC(C)O1 (configuration not stated),"inconclusive: 35.5 µM [inhibitor, single point]"
20,Cc1ccc(Cn2nnc3c(=O)[nH]c(C4CCN(S(=O)(=O)c5ccccc5)CC4)nc32)cc1,"inconclusive: 3.26 µM [activator, partial curve, poor fit]"
21,Cc1nc(N2CCCC2)c2c(C(=O)Nc3ccc(Br)cc3F)c(C)oc2n1,inactive

# Given with bars between the fields: entries from further up.
row | SMILES | Potency
13 | COC(=O)COc1ccc(S(=O)(=O)N2CCc3ccccc3C2)cc1 | inconclusive: 0.058 µM [inhibitor, partial curve, poor fit]
5 | CCC(NC(=O)c1ccccc1NC(=O)c1ccco1)C(=O)O (configuration not stated) | inactive
8 | Cc1ccccc1C(=O)N1CCC(N2CCN(Cc3ccc(F)cc3)C(=O)C2=O)CC1 | inconclusive: 17.8 µM [activator, single point]
15 | CNC(=S)N1CCN(C(c2ccccc2)c2ccccc2)CC1 | inactive
